Laboratory results: PubChem BioAssay AID1259308 (NCATS, 2017)

Screen: 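Genes whose loss raises luciferase production in HEK293 cells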 (primary screen)
Cells: human HEK293 embryonic kidney cells stably expressing firefly luciferase (HEK-CMV-Luc2-Hygro)
Reagents: single siRNA against human genes, 0.8 pmol siRNA per well
Timing: 72 h
Read-out: 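Luciferase light (ONE-Glo) measured on one replicate plate set and viability (CellTiter-Glo) on the other, scaled to a negative control siRNA, with robust z-scores and luciferase per cell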
Scale: total luciferase, z-score: higher = more reporter protein produced
Call rule: 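An siRNA counts as active if its total luciferase robust z-score exceeds 3; genes with two or more such siRNAs out of three were retested with fresh siRNAs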
Meaning of the calls: active = raised luciferase; inactive = no rise
Here is one part, drawn at random, of about 59,000 deposited reagents. About 1,510 of all reagents (2.6%) count as active. 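Calls use total luciferase alone and ignore viability, so some active siRNAs may act by altering cell number.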 A number with no mark means an inactive call. Not all columns of the deposit are shown. Reagent sequences are not shown.

CDK2AP2 [SID160727909] — total luciferase, z-score = 0.152
CDK2AP2 [SID160727919] — total luciferase, z-score = 1.08
CDK2AP2 [SID160727926] — total luciferase, z-score = -0.111
PPP1R1A [SID160714761] — total luciferase, z-score = 0.97
PPP1R1A [SID160714762] — total luciferase, z-score = 0.155
PPP1R1A [SID160714763] — total luciferase, z-score = 1.84
KIF13B [SID160735955] — total luciferase, z-score = 0.204
KIF13B [SID160735957] — total luciferase, z-score = 0.0889
KIF13B [SID160735958] — total luciferase, z-score = -0.54
NRK [SID160761147] — total luciferase, z-score = -0.0031
NRK [SID160761148] — total luciferase, z-score = -0.666
NRK [SID160761149] — total luciferase, z-score = -0.0836
TUSC3 [SID160719533] — total luciferase, z-score = 0.611
TUSC3 [SID160719534] — total luciferase, z-score = 1.73
TUSC3 [SID160719535] — total luciferase, z-score = 0.0405
RCL1 [SID160726476] — total luciferase, z-score = -0.674
RCL1 [SID160726478] — total luciferase, z-score = -1.52
RCL1 [SID160726484] — total luciferase, z-score = -0.813
SOCS7 [SID160739548] — total luciferase, z-score = -0.337
SOCS7 [SID160739549] — total luciferase, z-score = 0.513
SOCS7 [SID160739550] — total luciferase, z-score = 1.92

Next part, starting with the last 3 of the part before.
SOCS7 [SID160739548] — total luciferase, z-score = -0.337
SOCS7 [SID160739549] — total luciferase, z-score = 0.513
SOCS7 [SID160739550] — total luciferase, z-score = 1.92
GRIPAP1 [SID160733648] — total luciferase, z-score = 0.102
GRIPAP1 [SID160745186] — total luciferase, z-score = 0.342
GRIPAP1 [SID160745188] — total luciferase, z-score = -0.437
TPD52L3 [SID160724675] — total luciferase, z-score = -0.142
TPD52L3 [SID160724676] — total luciferase, z-score = 0.989
TPD52L3 [SID160753485] — total luciferase, z-score = 0.0016
FAM193A [SID160720405] — total luciferase, z-score = -0.728
FAM193A [SID160720406] — total luciferase, z-score = 0.688
FAM193A [SID160720407] — total luciferase, z-score = -0.812
FOXP3 [SID160739803] — total luciferase, z-score = -0.146
FOXP3 [SID160739804] — total luciferase, z-score = -1.4
FOXP3 [SID160739805] — total luciferase, z-score = -1
NR2F2-AS1 [SID160725716] — total luciferase, z-score = -0.457
NR2F2-AS1 [SID160769143] — total luciferase, z-score = 1.21
NR2F2-AS1 [SID160769146] — total luciferase, z-score = -0.849
PCDHB6 [SID160744833] — total luciferase, z-score = -0.722
PCDHB6 [SID160744834] — total luciferase, z-score = -2.08
PCDHB6 [SID160744836] — total luciferase, z-score = -0.835
LINC02911 [SID160733202] — total luciferase, z-score = -0.135
LINC02911 [SID160765799] — total luciferase, z-score = 2.16
LINC02911 [SID160765800] — total luciferase, z-score = -0.113
